Some of these results come from one statement about several compounds together.
Target: T1, biotinylated HRP (Armoracia rusticana, UniProt P00433)
T1 construct: purchased Roche Diagnostics, Indianapolis, Ind., USA
T1 sequence (P00433 31-338 limits assumed): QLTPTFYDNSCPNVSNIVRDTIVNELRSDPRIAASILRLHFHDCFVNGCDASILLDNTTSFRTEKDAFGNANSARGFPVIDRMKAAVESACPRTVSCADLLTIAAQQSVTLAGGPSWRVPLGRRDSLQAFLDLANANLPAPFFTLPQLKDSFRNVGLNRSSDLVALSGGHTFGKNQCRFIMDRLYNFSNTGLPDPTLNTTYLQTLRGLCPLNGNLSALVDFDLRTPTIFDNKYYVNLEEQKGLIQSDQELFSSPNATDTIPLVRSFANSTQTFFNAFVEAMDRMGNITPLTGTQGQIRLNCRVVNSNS
Assay: Model system for selection of SSIA (M280 btn-BSA-AK1-streptavidin particles + Btn-HRP:HRP)
Format: biochemical
Conditions: vs control; SSIA 100 μM
Description: The model system uses a microparticle conjugated to BSA (bovine serum albumin) labeled with a […] and acridan ketenedithioacetal chemiluminescent label (AK1) as the chemiluminescent-labeled sbp, and biotinylated HRP as the activator-labeled specific binding pair. In the model system, varying amounts of Btn-HRP is added to the chemiluminescent-labeled specific binding pair at 0, 1, 10, 100 and 250 ng/mL. Additional unlabeled HRP is added to reach a total HRP of concentration of 500 ng/mL in each reaction mixture. The unlabeled HRP in combination with the activator-labeled sbp was provided to the chemiluminescent-labeled sbp microparticles to emulate sample. A compound for assessment as an SSIA was also added. This reaction mixture of the model system is then triggered by addition of trigger solution in a manner of assays of the present disclosure.
To prepare the chemiluminescent-labeled sbp on microparticles, Bovine Serum Albumin (BSA) was biotinylated with 4× molar excess of biotin-LC-sulfoNHS (Pierce Biotechnology Inc., Rockford, Ill., USA). Unbound reactants were removed via desalting or dialysis. […]
5 μl of 1 mg/ml of dual-labeled (biotin and AK1) BSA M280 particles were mixed with 45 μl of working concentration SSIA in Buffer II. […] The reaction mixture was incubated for 30 min at 37° C., then 100 μL of trigger solution was added and the light intensity recorded. […]

COc1cc(/C=C/C(=O)O)ccc1O [Ferulic acid]
reduction in S0 signal: 75-88%

Source: patent US20100273189A1, “NON SEPARATION ASSAYS WITH SELECTIVE SIGNAL INHIBITORS” (BECKMAN COULTER, INC., priority 2009, published 2010)
